# Experimental data: PubChem BioAssay AID1671195 (Yale University, 2021)
# Purpose: 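Knockdowns that increase or decrease uptake of fluorescent LDL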 (primary screen)
# Cells: human Huh7 hepatoma cells
# Reagents: siRNA pool against human genes, 18 nM
# Duration: about 2 to 2.5 days of knockdown, then 8 h LDL uptake
# Conditions: DiI-labelled LDL at 30 µg/ml for 8 h, in lipoprotein-deficient serum medium
# Measurement: 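Per-cell DiI-LDL intensity by automated imaging; well means scaled to the plate median and given as a robust z-score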
# Scale: robust z-score: higher = more LDL uptake after knockdown
# Active means: 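a gene counts as active if at least two replicate z-scores exceed ±2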
# Here is one part, drawn at random, of about 22,000 reagents tested. About 1,510 of them (6.9%) count as active. 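Active includes knockdowns raising or lowering LDL uptake; positive z-scores mean more uptake, negative mean less.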 Entries without a mark were called inactive.
Target gene,"robust z-score, replicate 1","robust z-score, replicate 2","robust z-score, replicate 3"
IL20RA,-0.911,-1.54,-1.06
TMEM123,1.18,0.428,0.00957
TAS2R16,-0.695,-0.321,-0.102
CIMIP2C,1.94 (active),2.25,1.86
TUBGCP4,-1.79,-1.13,-1.67
FGF17,-0.544,-0.27,-0.732
LACRT,0.0461,0.293,0.333
ANKRD27,0.561,1.11,0.341
NPY1R,-1.07,-0.926,-0.469
FHIP1B,0.729,0.85,0.853
LOC439999 (retired record),-0.936,-0.196,-0.444
RUFY1,2.78 (active),2.55,2.83
WASF3,3.08 (active),3.38,2.14
PPP2CB,-0.0213,-1.35,-0.0954
GYPE,-0.0506,0.499,-0.288
SOX11,-0.794,-0.445,-0.243
SLC13A5,0.338,1.34,0.972
CMBL,-0.329,-0.371,0.757
MCEE,-0.941,-1.41,-1.38
HYAL3,0.129,-0.0317,0.0786
LOC390529 (retired record),-1.42,-1.63,-1.65
RAB11FIP5,1.16,1.76,0.495
SMYD3,-0.0604,-0.361,0.36
GCM2,1.37,1.16,2.11
DSPP,0.596,-1.22,-0.251
PPTC7,1.96,1.83,1.88
RPL10AP4,0.418,-0.0301,-0.324
BTG4,0.971,-0.32,-0.0403
LEUTX,1.48,2.28,1.78
LINC00691,0.952,0.617,0.251
LOC439998 (retired record),-0.767,0.769,-0.282
SACK1A,-1.04,-0.753,-0.591
DYNC2LI1,-2.06,-1.84,-1.05
MSMB,-0.355,-0.245,0.0374
C14orf180,0.401,0.699,0.518
ZNHIT1,-0.0438,1.41,-0.313
LOC150580 (retired record),0.597,-0.161,0.313
TAB3,-1.32,-0.701,-0.965
RAB4A,-1.06,-1.41,-1.74
GNG13,0.623,0.93,1.68
LOC389773 (retired record),-0.123,-0.483,-0.377
AZI2,0.355,0.15,1.4
PGLYRP3,-2.16 (active),-2.01,-2.43
WWC3,0.397,0.226,0.351
NXF5,1.61,1.03,-0.12
CMTM6,0.0127,0.0692,0.719
